Experimental findings from patent US20180078649 are described below.

Where cells or extracts were used, other partners may take part. For part of these data: A negative result means that nothing was seen under these conditions. For part of these data: The exact form of at least one protein or probe is not confirmed.

Data set [1] addresses CD38 (Homo sapiens) (UniProt P28907). Description: pull-down. Particulars: biotin aptamer precipitation, anti-CD38 western, 4 C, SELEX binding buffer, specific to MM1S versus HDLM2 lysate, protein in an extract, protein details: endogenous CD38 in MM1S RIPA cell lysate, single-stranded DNA.
Data set [2] shares this target. Description: flow cytometry. The note with it: 40-mer core lost cell binding to MM1S; protein on the cell surface; label: Cy3; single-stranded DNA; variant of Aptamer#1 (full length). (In general: In flow cytometry, cells or beads pass a laser one at a time.)

On to “ATCCAGAGTGACGCAGCAGCCAACGTGCTTTCTACCTTATTTTCCGTCACTCTCACTCTGGACACGGTGGCTTAGT [Aptamer#1 (full length)]”, for which the binding result in the data set with CD38 (Homo sapiens) [1] (label: 5'-Cy3 (flow cytometry) or biotin (pulldown)) is “binds”.

In the case of “TCCAGAGTGACGCAGCAGCCAACGTGCTTTCTACCTTATTTTCCGTCACTCTCACTCTGGA [Aptamer#1S (truncated 61-mer)]”, the binding result with CD38 (Homo sapiens) [1] (label: Cy3 (flow cytometry) or biotin (pulldown), variant of Aptamer#1 (full length)) was “binds”.

Regarding “GCCAACGTGCTTTCTACCTTATTTTCCGTCACTCTCACTC [Aptamer#1 40-mer core]”, in the data set with CD38 (Homo sapiens) [2], the binding result is recorded as “no binding”.
